Results as given in the supplement of paper PMC4604168 (melanoma cell lines).
Some of the results follow. Many values rest on one well or one pass, so single values are uncertain.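 The apoptosis fraction was the count of cleaved-PARP antibody-stained nuclei relative to all DNA-stained nuclei, imaged in 1,536-well plates. Screening doses were set so most cells survived, and baseline and induced cleaved-PARP levels vary greatly across cell lines.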

System: MeWo
Assay: cleaved PARP positive nuclei fraction relative to DMSO control; melanoma cells; higher = more apoptosis
Conditions: library dose: low library concentration; 72 h

Row | Compound | cleaved PARP positive nuclei fraction [%]
1 | Cc1cn(-c2cc(NC(=O)c3ccc(C)c(Nc4nccc(-c5cccnc5)n4)c3)cc(C(F)(F)F)c2)cn1 [nilotinib] + CNC(=O)c1cc(Oc2ccc(NC(=O)Nc3ccc(Cl)c(C(F)(F)F)c3)cc2)ccn1 [sorafenib] (first compound 0.2 µM, partner dose 0.4 µM) | 69.6
2 | O=c1[nH]nc(Sc2ncc([N+](=O)[O-])s2)n1-c1ccc2c(c1)OCCO2 + Nc1nc(F)nc2c1ncn2[C@@H]1O[C@H](CO)[C@@H](O)[C@@H]1O [fludarabine] (first compound 0.2 µM, partner dose 0.2 µM) | 532
3 | Cc1cn(-c2cc(NC(=O)c3ccc(C)c(Nc4nccc(-c5cccnc5)n4)c3)cc(C(F)(F)F)c2)cn1 [nilotinib] + CCCS(=O)(=O)Nc1ccc(F)c(C(=O)c2c[nH]c3ncc(Cl)cc23)c1F [PLX4720] (first compound 0.2 µM, partner dose 0.08 µM) | 110
4 | O=C(Nc1cc(C(F)(F)F)cc(C(F)(F)F)c1)c1cc(Cl)ccc1O + CC(=O)O[C@@]12CO[C@@H]1C[C@H](O)[C@@]1(C)C(=O)[C@H](O)C3=C(C)[C@@H](OC(=O)[C@H](O)[C@@H](NC(=O)OC(C)(C)C)c4ccccc4)C[C@@](O)([C@@H](OC(=O)c4ccccc4)[C@H]21)C3(C)C [Docetaxel] (first compound 0.016 µM, partner dose 0.0001 µM) | 358
5 | O=C(/C=C/c1cccnc1)NCCCCC1CCN(C(=O)c2ccccc2)CC1 + Nc1nc(F)nc2c1ncn2[C@@H]1O[C@H](CO)[C@@H](O)[C@@H]1O [fludarabine] (first compound 0.01 µM, partner dose 0.2 µM) | 478
6 | N#CC[C@H](C1CCCC1)n1cc(-c2ncnc3[nH]ccc23)cn1 [ruxolitinib] + NC1(c2ccc(-c3nc4ccn5c(=O)[nH]nc5c4cc3-c3ccccc3)cc2)CCC1 [MK2206] (first compound 1 µM, partner dose 0.4 µM) | 51.3
7 | CCCCCCCCCCCCCCCCCCOP(=O)([O-])OC1CC[N+](C)(C)CC1 [Perifosine] + Cn1c(=O)n(-c2ccc(C(C)(C)C#N)cc2)c2c3cc(-c4cnc5ccccc5c4)ccc3ncc21 [NVP-BEZ235] (first compound 0.4 µM, partner dose 0.004 µM) | 57.7
8 | CC[C@]1(O)C[C@H]2CN(CCc3c([nH]c4ccccc34)[C@@](C(=O)OC)(c3cc4c(cc3OC)N(C=O)[C@H]3[C@@](O)(C(=O)OC)[C@H](OC(C)=O)[C@]5(CC)C=CCN6CC[C@]43[C@@H]65)C2)C1 [vincristine] + CC(=O)O[C@@]12CO[C@@H]1C[C@H](O)[C@@]1(C)C(=O)[C@H](O)C3=C(C)[C@@H](OC(=O)[C@H](O)[C@@H](NC(=O)OC(C)(C)C)c4ccccc4)C[C@@](O)([C@@H](OC(=O)c4ccccc4)[C@H]21)C3(C)C [Docetaxel] (first compound 0.0001 µM, partner dose 0.0001 µM) | 570
9 | CCCCCCCCCCCCCCCCCCOP(=O)([O-])OC1CC[N+](C)(C)CC1 [Perifosine] + CO[C@H]1C[C@@H]2CC[C@@H](C)[C@@](O)(O2)C(=O)C(=O)N2CCCC[C@H]2C(=O)O[C@H]([C@H](C)C[C@@H]2CC[C@@H](OCCO)[C@H](OC)C2)CC(=O)[C@H](C)/C=C(\C)[C@@H](O)[C@@H](OC)C(=O)[C@H](C)C[C@H](C)/C=C/C=C/C=C/1C [everolimus] (first compound 0.4 µM, partner dose 0.02 µM) | 112
10 | Cc1ccc(Nc2nccc(N(C)c3ccc4c(C)n(C)nc4c3)n2)cc1S(N)(=O)=O [Pazopanib] + CS(=O)(=O)CCNCc1ccc(-c2ccc3ncnc(Nc4ccc(OCc5cccc(F)c5)c(Cl)c4)c3c2)o1 [lapatinib] (first compound 0.4 µM, partner dose 0.8 µM) | 126
11 | N#CC[C@H](C1CCCC1)n1cc(-c2ncnc3[nH]ccc23)cn1 [ruxolitinib] + C[C@]1(c2nc3c(C(N)=O)cccc3[nH]2)CCCN1 [Veliparib] (first compound 1 µM, partner dose 1.4 µM) | 217
12 | CC[C@]1(O)C[C@H]2CN(CCc3c([nH]c4ccccc34)[C@@](C(=O)OC)(c3cc4c(cc3OC)N(C=O)[C@H]3[C@@](O)(C(=O)OC)[C@H](OC(C)=O)[C@]5(CC)C=CCN6CC[C@]43[C@@H]65)C2)C1 [vincristine] + Cn1cnc2c(F)c(Nc3ccc(Br)cc3Cl)c(C(=O)NOCCO)cc21 [selumetinib] (first compound 0.0001 µM, partner dose 0.015 µM) | 217
13 | CC[C@]1(O)C[C@H]2CN(CCc3c([nH]c4ccccc34)[C@@](C(=O)OC)(c3cc4c(cc3OC)N(C=O)[C@H]3[C@@](O)(C(=O)OC)[C@H](OC(C)=O)[C@]5(CC)C=CCN6CC[C@]43[C@@H]65)C2)C1 [vincristine] + Nc1cccc2c1CN(C1CCC(=O)NC1=O)C2=O [lenalidomide] (first compound 0.0001 µM, partner dose 1 µM) | 99.7
14 | N#CC[C@H](C1CCCC1)n1cc(-c2ncnc3[nH]ccc23)cn1 [ruxolitinib] + CCN(CC)CCNC(=O)c1c(C)[nH]c(/C=C2\C(=O)Nc3ccc(F)cc32)c1C [sunitinib] (first compound 1 µM, partner dose 0.4 µM) | 229
15 | COc1cc([C@@H]2c3cc4c(cc3[C@@H](O[C@@H]3O[C@@H]5CO[C@@H](C)O[C@H]5[C@H](O)[C@H]3O)[C@H]3COC(=O)[C@H]23)OCO4)cc(OC)c1O [etoposide] + O=C(/C=C/c1cccnc1)NCCCCC1CCN(C(=O)c2ccccc2)CC1 [FK866] (first compound 0.02 µM, partner dose 0.01 µM) | 113
16 | O=c1[nH]nc(Sc2ncc([N+](=O)[O-])s2)n1-c1ccc2c(c1)OCCO2 + CC(=O)O[C@@]12CO[C@@H]1C[C@H](O)[C@@]1(C)C(=O)[C@H](O)C3=C(C)[C@@H](OC(=O)[C@H](O)[C@@H](NC(=O)OC(C)(C)C)c4ccccc4)C[C@@](O)([C@@H](OC(=O)c4ccccc4)[C@H]21)C3(C)C [Docetaxel] (first compound 0.2 µM, partner dose 0.0001 µM) | 612
17 | N#CC[C@H](C1CCCC1)n1cc(-c2ncnc3[nH]ccc23)cn1 [ruxolitinib] + NC(=O)c1ccc(N(C(N)=O)c2c(F)cccc2F)nc1-c1ccc(F)cc1F [VX702] (first compound 1 µM, partner dose 0.4 µM) | 166
18 | N#CC[C@H](C1CCCC1)n1cc(-c2ncnc3[nH]ccc23)cn1 [ruxolitinib] + Cn1sc(=O)n(Cc2ccccc2)c1=O [TDZD-8] (first compound 1 µM, partner dose 0.4 µM) | 77
19 | CC[C@]1(O)C[C@H]2CN(CCc3c([nH]c4ccccc34)[C@@](C(=O)OC)(c3cc4c(cc3OC)N(C=O)[C@H]3[C@@](O)(C(=O)OC)[C@H](OC(C)=O)[C@]5(CC)C=CCN6CC[C@]43[C@@H]65)C2)C1 [vincristine] + C[C@@H](Oc1cc(-c2cnn(C3CCNCC3)c2)cnc1N)c1c(Cl)ccc(F)c1Cl [Crizotinib] (first compound 0.0001 µM, partner dose 0.2 µM) | 117
20 | O=c1[nH]nc(Sc2ncc([N+](=O)[O-])s2)n1-c1ccc2c(c1)OCCO2 + CN(c1ncccc1CNc1nc(Nc2ccc3c(c2)CC(=O)N3)ncc1C(F)(F)F)S(C)(=O)=O [PF562271] (first compound 0.2 µM, partner dose 0.08 µM) | 120
21 | O=C(Nc1cc(C(F)(F)F)cc(C(F)(F)F)c1)c1cc(Cl)ccc1O + Nc1ccn([C@@H]2O[C@H](CO)[C@@H](O)C2(F)F)c(=O)n1 [gemcitabine] (first compound 0.016 µM, partner dose 0.0004 µM) | 12.7
22 | COc1cc([C@@H]2c3cc4c(cc3[C@@H](O[C@@H]3O[C@@H]5CO[C@@H](C)O[C@H]5[C@H](O)[C@H]3O)[C@H]3COC(=O)[C@H]23)OCO4)cc(OC)c1O [etoposide] + CCCS(=O)(=O)Nc1ccc(F)c(C(=O)c2c[nH]c3ncc(Cl)cc23)c1F [PLX4720] (first compound 0.02 µM, partner dose 0.08 µM) | 11
23 | CC[C@]1(O)C[C@H]2CN(CCc3c([nH]c4ccccc34)[C@@](C(=O)OC)(c3cc4c(cc3OC)N(C=O)[C@H]3[C@@](O)(C(=O)OC)[C@H](OC(C)=O)[C@]5(CC)C=CCN6CC[C@]43[C@@H]65)C2)C1 [vincristine] + Cn1c(=O)n(-c2ccc(C(C)(C)C#N)cc2)c2c3cc(-c4cnc5ccccc5c4)ccc3ncc21 [NVP-BEZ235] (first compound 0.0001 µM, partner dose 0.004 µM) | 178
24 | COc1cc([C@@H]2c3cc4c(cc3[C@@H](O[C@@H]3O[C@@H]5CO[C@@H](C)O[C@H]5[C@H](O)[C@H]3O)[C@H]3COC(=O)[C@H]23)OCO4)cc(OC)c1O [etoposide] + CN(c1ncccc1CNc1nc(Nc2ccc3c(c2)CC(=O)N3)ncc1C(F)(F)F)S(C)(=O)=O [PF562271] (first compound 0.02 µM, partner dose 0.08 µM) | 117

Reprinted from the entries so far (two entries):
Row | Compound | cleaved PARP positive nuclei fraction [%]
4 | O=C(Nc1cc(C(F)(F)F)cc(C(F)(F)F)c1)c1cc(Cl)ccc1O + CC(=O)O[C@@]12CO[C@@H]1C[C@H](O)[C@@]1(C)C(=O)[C@H](O)C3=C(C)[C@@H](OC(=O)[C@H](O)[C@@H](NC(=O)OC(C)(C)C)c4ccccc4)C[C@@](O)([C@@H](OC(=O)c4ccccc4)[C@H]21)C3(C)C [Docetaxel] (first compound 0.016 µM, partner dose 0.0001 µM) | 358
5 | O=C(/C=C/c1cccnc1)NCCCCC1CCN(C(=O)c2ccccc2)CC1 + Nc1nc(F)nc2c1ncn2[C@@H]1O[C@H](CO)[C@@H](O)[C@@H]1O [fludarabine] (first compound 0.01 µM, partner dose 0.2 µM) | 478
